According to the supplement of paper PMC3334620:
In all, about 33,000 sequences were measured (“E-score (-0.5 to 0.5)”: median about -0.016, highest 2% from about 0.3 on). Some of the results follow.

target: T1, Yer184c (UniProt P39961); assay: PBM E-score (8-mer binding enrichment) (E-score (-0.5 to 0.5)); higher = stronger / more preferred TF binding; details: protein concentration: 100 nM; construct: GST-full length
T1 sequence: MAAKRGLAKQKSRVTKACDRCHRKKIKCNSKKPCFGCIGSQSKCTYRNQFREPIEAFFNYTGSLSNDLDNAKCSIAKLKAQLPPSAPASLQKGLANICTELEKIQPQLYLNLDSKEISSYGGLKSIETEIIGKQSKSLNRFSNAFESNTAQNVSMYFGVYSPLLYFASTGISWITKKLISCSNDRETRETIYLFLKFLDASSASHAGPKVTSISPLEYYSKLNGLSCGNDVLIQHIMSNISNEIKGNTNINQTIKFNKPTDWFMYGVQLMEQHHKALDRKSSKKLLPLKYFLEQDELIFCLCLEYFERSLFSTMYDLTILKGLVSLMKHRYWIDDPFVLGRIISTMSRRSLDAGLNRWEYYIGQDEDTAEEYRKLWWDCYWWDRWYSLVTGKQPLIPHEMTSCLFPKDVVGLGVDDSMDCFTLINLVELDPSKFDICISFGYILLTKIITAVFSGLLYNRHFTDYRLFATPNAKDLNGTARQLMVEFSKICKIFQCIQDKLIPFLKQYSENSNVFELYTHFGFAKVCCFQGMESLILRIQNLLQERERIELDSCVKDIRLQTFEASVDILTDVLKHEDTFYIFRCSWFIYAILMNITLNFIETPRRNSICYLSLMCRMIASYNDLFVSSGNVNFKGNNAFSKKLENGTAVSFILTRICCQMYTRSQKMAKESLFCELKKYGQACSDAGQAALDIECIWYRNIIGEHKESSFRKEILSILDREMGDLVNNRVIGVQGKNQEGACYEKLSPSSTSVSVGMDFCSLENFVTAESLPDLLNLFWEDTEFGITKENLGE
Summary of the method: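 Each ungapped eight-base word and its reverse complement, pooled, received an E-score from the Universal PBM Analysis Suite. Underlying scans, normalised with masliner, recorded fluorescent anti-GST bound to GST-tagged yeast transcription factors. These were applied at about 100-200 nM to universal all-10-mer Agilent arrays double-stranded by primer extension.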

Sequence | PBM E-score
CAGAATCA | 0.0879
CTCGACCA | -0.164
AAACGGAT | 0.313
GCACTTAA | 0.201
GCCGAATA | 0.361
ACCTGACT | 0.113
ATTGCTCG | 0.0241
CCGTCTAC | 0.0672
CTTTCAAA | 0.248
CACGCCTC | -0.0955
CCGAGGCA | 0.194
ATTGGTGG | -0.0975
ACGTACAT | 0.0376
GTCATAGA | -0.0289
CCGTGAAG | -0.0231
GTTCTTAA | 0.0672
CTTTCTGC | 0.0505
CTTAATCC | 0.0657
CATCGGTA | 0.154
GGGGTGAA | -0.16
GCAGTCCC | -0.222
AAGTCACG | 0.0266
ATAATCCC | -0.0945
CAAAATCC | 0.118
ATAACCAA | 0.0514

Sequence | PBM E-score
AGCCACAA | 0.126
GAAGACAC | -0.00908
CCGATGGA | 0.129
CGTTTAAA | 0.073
AGTTTAGC | -0.101
CAGTTTAC | -0.0254
AATGCACG | 0.024
GACCTCGC | -0.137
GAACTCGA | 0.0578
AGAAAAGA | 0.00442
CACCAATG | -0.145
AGAGTCGG | 0.0672
TCTACGCA | 0.0652
TCTAAGCA | -0.101
AATAGTGG | -0.0535
AAAAATCT | 0.219
GCAACCGA | 0.0827
GGATGTGA | 0.0899
AACGAGGA | 0.0248
GAACCCGC | -0.101
CGGTCGGC | 0.161
AGAGTTAA | 0.0684
GGAATTCC | 0.125
AACCCGTG | -0.262
AACTTGCC | 0.00508

Sequence | PBM E-score
CGAAGTTC | 0.166
ATGCCTAC | -0.336
GTTTGTCA | 0.0311
AGAATTAG | -0.00946
TGAAGCAA | 0.0403
CCTGACTA | 0.0172
ATAATCTC | 0.128
GGTCTTTA | 0.0223
ATGCGAAC | 0.0436
ATCGTTAG | 0.102
AATCGAGA | -0.0614
CCGCGCTC | 0.0785
AACCTGCT | -0.0846
CATTTACG | -0.0376
CGTAGTAG | 0.102
ATACGGAG | 0.123
ATTTCGAG | 0.162
AATAGCAA | 0.205
GAATCGCA | -0.163
CGTAGCGC | -0.233
GCTTCTTA | 0.175
ATGCGTTA | -0.0382
AAAAGCAA | 0.146
ATTGGTAG | -0.0488
ATCCCGAC | 0.158

Sequence | PBM E-score
GGTAAGTA | 0.0129
GCCGTAGA | 0.322
ACCGATAC | 0.127
ACAAGACA | 0.00551
AGGGGCAG | -0.225
CATTTGCG | 0.165
CTAGCCAA | 0.0566
AGTGCGAA | -0.0968
AATACTCT | 0.0821
ATCCCTCA | -0.137
AGAATCTC | -0.109
TACGTTAA | -0.0987
CGTACCCA | -0.182
GCTCATTA | 0.0403
ATTACGGC | 0.216
GTTGGAAA | 0.0279
ATAATTTA | 0.205
ACGTCCAG | -0.246
AGAAGACT | -0.277
GGGTTCCA | -0.208
ACTGCAGG | -0.24
GAGCCCTC | -0.222
GTGCTATA | 0.0179
CTTCAAGC | -0.177
CAGAGTTA | -0.00643

Another view of part of the listing above:
TACGTTAA
  PBM E-score: -0.0987
AGAAGACT
  PBM E-score: -0.277
GGGTTCCA
  PBM E-score: -0.208

Going on with the list.

Sequence | PBM E-score
CGACCGTA | -0.212
ACGATTGA | 0.0125
CCACCCGA | 0.0396
ATAGGAAC | -0.0252
CCGGCCCG | 0.386
GGTATACA | 0.0522
AAACAGAG | -0.0111
ATACCTTG | -0.00484
AGGCATAT | 0.0107
CGACCTTA | -0.125
AAGTTCTA | -0.0763
AATAGGTA | -0.15
AAAACCAT | 0.0993
AGATGTGC | -0.165
TTATTGAA | 0.054
CGGTGGCA | -0.188
TAACGAGA | 0.0041
GCACCACA | -0.0667
AGCACCAG | -0.196
CCGCCTCC | -0.209
CCCATGGA | -0.216
CATTGAAA | 0.252
GCCGCTAA | 0.128
AGCTGTAC | -0.0647
ATTCATGG | -0.0258

Sequence | PBM E-score
ACCTGCAA | -0.104
CAATTCTA | -0.041
CGCCAAGA | -0.232
ATACATGA | 0.0451
ACCTAGGA | -0.0362
GCCGGCAA | 0.424
AAAGGGAG | -0.313
CTATTGTA | 0.186
CGCTTGTA | 0.0325
GAGTCACC | -0.143
ACGCCAGG | -0.115
AACTTACT | -0.16
GGAATGCC | -0.0172
TCATCTCA | -0.00118
CAGCTAAC | -0.245
CCGATGTC | 0.0654
ACACTGGG | -0.275
ATATCTTA | 0.187
GGATGAAA | 0.176
CATGGAAC | -0.137
CTTCTAGC | -0.166
CCACTGCC | -0.0541
CTCAAGAA | -0.149
ACAAAAAT | 0.237
AACACCAT | 0.0165

Reformatted as comma-separated lines: entries from further up.
Sequence,PBM E-score
CAGAGTTA,-0.00643
CGACCGTA,-0.212
ACGATTGA,0.0125
CCACCCGA,0.0396
ATAGGAAC,-0.0252
CCGGCCCG,0.386
GGTATACA,0.0522
AAACAGAG,-0.0111
ATACCTTG,-0.00484
AGGCATAT,0.0107
CGACCTTA,-0.125
AAGTTCTA,-0.0763
AATAGGTA,-0.15
AAAACCAT,0.0993
AGATGTGC,-0.165
TTATTGAA,0.054
CGGTGGCA,-0.188
TAACGAGA,0.0041
GCACCACA,-0.0667
AGCACCAG,-0.196
CCGCCTCC,-0.209
CCCATGGA,-0.216
CATTGAAA,0.252
GCCGCTAA,0.128
AGCTGTAC,-0.0647
ATTCATGG,-0.0258
ACCTGCAA,-0.104
CAATTCTA,-0.041
CGCCAAGA,-0.232
ATACATGA,0.0451
ACCTAGGA,-0.0362
GCCGGCAA,0.424
AAAGGGAG,-0.313
CTATTGTA,0.186
CGCTTGTA,0.0325
GAGTCACC,-0.143
ACGCCAGG,-0.115
AACTTACT,-0.16
GGAATGCC,-0.0172
TCATCTCA,-0.00118
CAGCTAAC,-0.245
CCGATGTC,0.0654
ACACTGGG,-0.275
ATATCTTA,0.187
GGATGAAA,0.176
CATGGAAC,-0.137
CTTCTAGC,-0.166
CCACTGCC,-0.0541
CTCAAGAA,-0.149
ACAAAAAT,0.237

Additional records.

Sequence | PBM E-score
AGAAGTGA | -0.101
ATCTTAGC | -0.0214
ATAACGCG | -0.0632
AACGCAAA | 0.0887
GCATTAAA | 0.149
CGGCGTAC | 0.164
AGATGGCC | -0.153
GATAGCGC | -0.051
ACTACTCG | 0.151
CCGAAGGC | 0.147
CATAGTCC | -0.153
AGAACCAT | 0.0819
GATCTGCA | -0.0753
TAATTTAA | 0.289
ACGCAAGC | -0.0529
TCTTCTAA | 0.129
ATGATCAC | -0.0394
AACATATT | 0.176
GGTCATTA | -0.0833
ACGCCGCT | 0.0292
CACCGTGA | -0.0116
AAACCTAC | -0.106
ACCCGCAG | 0.0868
AAGCCGCC | -0.112
ACTAAGGG | -0.118

Sequence | PBM E-score
AGAGTACC | -0.108
AATACCTC | 0.0393
CTTCTCTA | -0.178
AGCAGTTA | -0.0175
ATTTAGGG | 0.0535
AGGATACT | -0.0918
ACGCATTA | 0.0568
ACCAGCAT | -0.234
AGAATAGA | 0.095
ACGGAAGT | 0.222
CGGATGTC | 0.279
CCGTCACC | -0.158
ACATCAGG | -0.0431
AGAGGGCT | -0.338
AACGTTCT | 0.0589
ATGCCATA | -0.203
AAAAAAGC | 0.00493
CACTATCC | -0.106
CCGATGGC | 0.0356
GATCGGCA | 0.231
TCGACAGA | -0.147
CAATTCTG | -0.119
TGCTAAAA | 0.0497
CGCGACCC | -0.103
GCTGAATA | 0.022

Sequence | PBM E-score
AATGGTCA | 0.00218
ATTGTTTG | 0.137
TCAGTTCA | -0.123
GTGTGAAC | 0.0687
AACCCTGT | -0.0852
AAGGTAAC | 0.0582
ACTTGCAA | 0.163
ATGGGCAA | -0.119
TGGGCACA | -0.107
GATTGCTA | -0.0892
AGCCCTTG | -0.218
TAGATCGA | -0.0162
GGGAGAAC | -0.108
ACGGATTC | 0.197
TATGCGGA | 0.121
CGCACGCA | 0.00217
CAGGGACA | -0.0413
GTATTTCA | 0.111
AGCTCGGA | 0.159
